Results are given in words; binding and its absence hold for the method and conditions named. Some binding calls cover weakened binding; strength is not graded here.
What was measured:
[1] = target: T1, Recombinant human BMP-2 (Medtronic Sofamor Danek) (human) (UniProt P12643); assay: capture of BMP-2 by PA gel from medium, 16 h, sandwich ELISA
T1 sequence (looked up): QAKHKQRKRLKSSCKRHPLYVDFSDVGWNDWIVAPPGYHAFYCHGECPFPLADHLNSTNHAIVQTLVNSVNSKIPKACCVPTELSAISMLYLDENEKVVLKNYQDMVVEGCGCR

[2] = target: T1, Recombinant human BMP-2 (Medtronic Sofamor Danek) (human); assay: capture of BMP-2 by PA gel from medium, sandwich ELISA
[3] = target: T1, Recombinant human BMP-2 (Medtronic Sofamor Danek) (human); assay: Capture of BMP-2 from medium (25 ng BMP-2 in 1 mL) by a 20 uL PA gel at 37 C. BMP-2 left in the medium was quantified by sandwich ELISA.

Measured: binding

B1: diluent PA, C16-V3A3E3-COOH (peptide)
peptide: VVVAAAEEE
modifications: C16 alkyl tail covalently attached at the N-terminus; C-terminal COOH
binds: [1] | [2] | [3]
